The results in this text go back to patent US9499551B2, “Substituted pyrrolo[2,3-b]pyridines for treating cancer or inflammatory diseases” (Confluence Life Sciences, Inc., priority 2014, dated 2016).

Chains of the proteins cited; added tags and fusions are not shown. A line that says so, or that is headed by a name, gives the form on record, which may keep a tag or linker. Residues count along the entry.
UniProt O43318, 1-303 with tags or gaps limits assumed: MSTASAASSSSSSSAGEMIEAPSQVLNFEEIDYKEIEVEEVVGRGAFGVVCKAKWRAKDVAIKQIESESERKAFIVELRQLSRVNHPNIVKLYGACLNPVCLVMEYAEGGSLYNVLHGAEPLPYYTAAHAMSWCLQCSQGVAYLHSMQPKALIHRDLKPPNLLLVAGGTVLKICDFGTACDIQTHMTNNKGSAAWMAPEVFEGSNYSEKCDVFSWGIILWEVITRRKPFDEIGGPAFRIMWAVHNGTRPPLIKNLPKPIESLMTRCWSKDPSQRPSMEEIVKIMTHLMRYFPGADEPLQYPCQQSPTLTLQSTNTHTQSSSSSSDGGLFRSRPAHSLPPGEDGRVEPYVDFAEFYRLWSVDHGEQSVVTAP

Assay [1] relates to IL-6 Production in Human Peripheral Blood Mononuclear Cells (PBMC). In words: LPS stimulated IL-6 production in PBMC cells. The conditions noted are these: read-out: IL-6 Production Inhibition IC50 uM. As for the experimental part: LPS Stimulated IL-6 Production in PBMC Cells:
Lipopolysaccharide (LPS) stimulated IL-6 Production in Human Peripheral Blood Mononuclear Cells (PBMC): The cellular efficacy of compound candidates is determined using peripheral blood mononuclear cells purified from human whole blood, based upon the methods of Burnette et al. (2009) Pharmacology, 84:42-60. PBMC produce a number of cytokines (IL6, IL8, IL1β and TNFα) in response to stimulation with LPS. To induce the production of inflammatory mediators, PBMC are plated at a final concentration of 2×10^5 cells/well in a 96 well flat bottom plate in DMEM medium supplemented with 10% fetal bovine serum, 100 units/ml penicillin and 100 μg/ml streptomycin (Gibco BRL Life Technologies). Cells are treated with or without inhibitors for 1-3 hrs then stimulated with 100 ng/ml LPS (serotype 011:B4, Sigma) for an additional 3 hrs at 37° C. with 5% CO2. The supernatants are removed and stored at −20° C. until they are to be assayed. The levels of inflammatory mediators are determined using commercial MSD cytokine kits (Meso Scale Discovery) as per the manufacturer's instructions. Standard curves are based on 7 steps of 4× serial dilutions, with a wide dynamic range of 10000 pg/ml to 2.4 pg/ml, and a blank. Lower limit of detection (LLOD) is calculated at the commonly used 3× the standard deviation of the blank.

Assay [2] addresses TAK1-TAB1 (Homo sapiens, UniProt O43318). In words: TAK1-TAB1 binding inhibitory potency (LanthaScreen competitive binding assay, kinase tracer-236). The conditions noted are these: read-out: TAK1-Tab (2 h PI) Inhibition IC50 uM; 2 h PI (pre-incubation); 10 nM TAK1-TAB1, 100 nM kinase tracer-236. From the text: TAK1-TAB1 Binding Inhibitory Potency:
The ability of candidate compounds to interact with TAK1-TAB1 is quantitated by a competitive binding assay using the LanthaScreen technology developed by Life Technologies. This assay is based on the binding of a proprietary, Alexa Fluor® 647-labeled, ATP-competitive kinase inhibitor (kinase tracer-236) to the TAK1-TAB1 construct in presence of a europium-conjugated antibody, resulting in a FRET (fluorescence resonance energy transfer) signal. Displacement of the kinase tracer by compound results in a lower emission ratio upon excitation of the europium chelate. Candidate compounds are designed as potential irreversible inhibitors of TAK1-TAB1, capable of ligating to an active site cysteine residue. The time dependent nature of irreversible inhibition is investigated by performing the binding assay with and without a pre-incubation of compound and TAK1-TAB1.
The inhibitory potency of candidate compounds is measured in 20 mM HEPES pH 7.5, 10 mM MgCl2, 0.01% BSA, 0.0005% Tween-20, and 2% DMSO in the presence of 10 nM TAK1-TAB1, 2 nM Eu-anti-his antibody, and 100 nM kinase tracer-236 using a 384-well plate format. Background signal is defined in the absence of TAK1-TAB1 and uninhibited signal is defined in the presence of vehicle (2% DMSO) alone. Compounds were evaluated in an 11 point dose-response ranging from 20 μM to 0.34 nM. The binding assays are performed under two conditions to evaluate time dependence of inhibition. For the pre-incubation assay, TAK1-TAB1 and Eu-anti-his antibody are preincubated with compound or vehicle for two hours prior to the addition of kinase tracer. The non-preincubated assay is run in which TAK1-TAB1 and Eu-anti-his antibody are added to a mixture of compound and kinase tracer. IC50 values of compounds are determined using a 4 parameter logistical fit of emission ratio as a function of the concentration of compound. […]

The structures given here were assigned with low confidence; some may be wrong.

The IC50 is the concentration that inhibits the measured activity by half. Take `CC(=O)c1ccc(-c2cnc3[nH]cc(/C=C/C(N)=O)c3n2)cn1`: the IC50 in assay [1] and in assay [2] was less than 1 µM throughout.

On to `CC(C)=CC(=O)c1c[nH]c2ncc(-c3ccccc3)cc12`, for which the IC50 in assay [2] is greater than 1 µM.

Regarding `NC(=O)/C=C/c1c[nH]c2ncc(-c3ccc(C(=O)c4ccccc4)cc3)cc12`, in assay [2], the half-inhibitory concentration (IC50) is less than 1 µM.

Turning to `NC(=O)/C=C/c1c[nH]c2ncc(-c3ccn(-c4ccccc4)n3)cc12`, the IC50 in assay [1] and in assay [2] was less than 1 µM throughout.

For the compound `C/C=C(\C)C(=O)c1c[nH]c2ncc(-c3ccccc3)cc12`, in assay [2], the IC50 is greater than 1 µM.

Regarding `C/C=C/C(=O)c1c[nH]c2ncc(-c3ccccc3)cc12`, the IC50 in assay [2] is greater than 1 µM.
